{
  "source": "paper PMC8373065",
  "target": "human METTL2A with N-terminal His6 tag (human) (UniProt Q96IZ6)",
  "test": "SEC; gel filtration of purified METTL2A on Superdex S200 and Superdex S75, mass from the elution volumes of standard proteins; both purified",
  "note": "Results are given in words; binding and its absence hold for the method and conditions named. Sequences can lack the tags named with a protein.",
  "data": [
    {"binder": "human METTL2A with N-terminal His6 tag (enzyme, UniProt Q96IZ6 1-378) MAGSYPEGAPAVLADKRQQFGSRFLRDPARVFHHNAWDNVEWSEEQAAAAERKVQENSIQRVCQEKQVDYEINAHKYWNDFYKIHENGFFKDRHWLFTEFPELAPSQNQNHLKDWFLENKSEVPECRNNEDGPGLIMEEQHKCSSKSLEHKTQTLPVEENVTQKISDLEICADEFPGSSATYRILEVGCGVGNTVFPILQTNNDPGLFVYCCDFSSTAIELVQTNSEYDPSRCFAFVHDLCDEEKSYPVPKGSLDIIILIFVLSAIVPDKMQKAINRLSRLLKPGGMMLLRDYGRYDMAQLRFKKGQCLSGNFYVRGDGTRVYFFTQEELDTLFTTAGLEKVQNLVDRRLQVNRGKQLTMYRVWIQCKYCKPLLSSTS", "values": [
      {"measurement": "binding", "result": "no binding"}
    ]}
  ]
}
